Experimental data: the supplement of paper PMC10849652
The other results are listed elsewhere or left out.

By UniProt entry, the sequences of proteins in these tests, tags left out. Where a name states a change or a piece, a line headed by the entry shows the natural chain unless it says otherwise.
UniProt P0CAP2, whole entry, looked up: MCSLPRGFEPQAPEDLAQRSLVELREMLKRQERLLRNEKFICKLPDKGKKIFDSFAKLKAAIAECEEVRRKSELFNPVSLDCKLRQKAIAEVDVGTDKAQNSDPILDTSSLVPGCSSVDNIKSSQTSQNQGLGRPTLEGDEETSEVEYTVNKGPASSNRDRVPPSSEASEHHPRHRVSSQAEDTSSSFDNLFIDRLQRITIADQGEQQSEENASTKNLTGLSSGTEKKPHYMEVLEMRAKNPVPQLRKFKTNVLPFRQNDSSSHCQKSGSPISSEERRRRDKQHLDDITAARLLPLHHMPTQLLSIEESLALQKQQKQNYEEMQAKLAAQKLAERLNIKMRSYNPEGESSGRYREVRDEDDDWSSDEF
UniProt Q9BY77: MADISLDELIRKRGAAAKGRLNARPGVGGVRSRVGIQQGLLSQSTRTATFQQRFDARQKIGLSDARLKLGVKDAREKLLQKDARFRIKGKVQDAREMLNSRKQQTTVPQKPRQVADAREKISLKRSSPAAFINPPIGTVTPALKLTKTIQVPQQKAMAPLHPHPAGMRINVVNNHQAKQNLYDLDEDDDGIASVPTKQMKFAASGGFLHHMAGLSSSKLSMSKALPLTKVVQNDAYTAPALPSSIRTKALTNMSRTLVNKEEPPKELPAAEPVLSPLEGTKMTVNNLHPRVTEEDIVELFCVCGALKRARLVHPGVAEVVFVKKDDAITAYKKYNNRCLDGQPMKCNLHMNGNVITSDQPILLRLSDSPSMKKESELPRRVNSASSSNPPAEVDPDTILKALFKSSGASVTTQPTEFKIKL
UniProt P35813: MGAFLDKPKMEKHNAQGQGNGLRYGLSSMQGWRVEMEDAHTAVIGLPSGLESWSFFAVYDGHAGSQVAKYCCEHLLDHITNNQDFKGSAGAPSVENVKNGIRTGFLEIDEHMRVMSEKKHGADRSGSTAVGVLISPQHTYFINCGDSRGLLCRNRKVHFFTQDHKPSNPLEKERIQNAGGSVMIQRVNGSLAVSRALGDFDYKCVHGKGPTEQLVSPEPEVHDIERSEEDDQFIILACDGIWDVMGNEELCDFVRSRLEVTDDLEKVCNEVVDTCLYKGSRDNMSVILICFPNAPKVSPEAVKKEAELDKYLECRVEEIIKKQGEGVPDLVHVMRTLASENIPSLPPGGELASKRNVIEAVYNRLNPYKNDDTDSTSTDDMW
UniProt Q99575: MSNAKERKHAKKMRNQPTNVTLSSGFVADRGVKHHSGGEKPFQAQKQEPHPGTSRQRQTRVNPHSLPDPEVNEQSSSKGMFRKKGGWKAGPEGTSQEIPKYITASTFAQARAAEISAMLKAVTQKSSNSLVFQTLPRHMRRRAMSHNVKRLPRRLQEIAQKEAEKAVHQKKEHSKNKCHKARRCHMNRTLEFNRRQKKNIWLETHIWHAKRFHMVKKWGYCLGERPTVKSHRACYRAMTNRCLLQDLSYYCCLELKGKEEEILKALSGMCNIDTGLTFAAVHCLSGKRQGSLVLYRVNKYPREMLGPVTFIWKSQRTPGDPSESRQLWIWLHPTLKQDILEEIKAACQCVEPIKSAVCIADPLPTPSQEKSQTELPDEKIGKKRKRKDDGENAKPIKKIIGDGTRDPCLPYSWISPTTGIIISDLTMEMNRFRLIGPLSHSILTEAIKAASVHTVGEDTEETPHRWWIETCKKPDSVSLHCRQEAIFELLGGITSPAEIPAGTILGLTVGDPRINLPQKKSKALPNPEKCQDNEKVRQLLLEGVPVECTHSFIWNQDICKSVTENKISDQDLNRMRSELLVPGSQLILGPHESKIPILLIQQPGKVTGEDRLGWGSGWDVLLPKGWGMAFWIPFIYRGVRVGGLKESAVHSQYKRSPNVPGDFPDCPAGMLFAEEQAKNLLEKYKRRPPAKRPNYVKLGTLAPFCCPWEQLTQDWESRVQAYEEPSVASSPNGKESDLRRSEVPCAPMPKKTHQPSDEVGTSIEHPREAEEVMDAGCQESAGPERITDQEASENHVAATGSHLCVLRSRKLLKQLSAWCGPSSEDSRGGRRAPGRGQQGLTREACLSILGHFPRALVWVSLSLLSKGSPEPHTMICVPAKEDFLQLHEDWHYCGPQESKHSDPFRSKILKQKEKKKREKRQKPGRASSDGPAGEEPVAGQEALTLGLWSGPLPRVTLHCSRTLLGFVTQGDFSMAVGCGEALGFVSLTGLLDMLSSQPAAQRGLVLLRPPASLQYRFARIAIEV
UniProt Q13136: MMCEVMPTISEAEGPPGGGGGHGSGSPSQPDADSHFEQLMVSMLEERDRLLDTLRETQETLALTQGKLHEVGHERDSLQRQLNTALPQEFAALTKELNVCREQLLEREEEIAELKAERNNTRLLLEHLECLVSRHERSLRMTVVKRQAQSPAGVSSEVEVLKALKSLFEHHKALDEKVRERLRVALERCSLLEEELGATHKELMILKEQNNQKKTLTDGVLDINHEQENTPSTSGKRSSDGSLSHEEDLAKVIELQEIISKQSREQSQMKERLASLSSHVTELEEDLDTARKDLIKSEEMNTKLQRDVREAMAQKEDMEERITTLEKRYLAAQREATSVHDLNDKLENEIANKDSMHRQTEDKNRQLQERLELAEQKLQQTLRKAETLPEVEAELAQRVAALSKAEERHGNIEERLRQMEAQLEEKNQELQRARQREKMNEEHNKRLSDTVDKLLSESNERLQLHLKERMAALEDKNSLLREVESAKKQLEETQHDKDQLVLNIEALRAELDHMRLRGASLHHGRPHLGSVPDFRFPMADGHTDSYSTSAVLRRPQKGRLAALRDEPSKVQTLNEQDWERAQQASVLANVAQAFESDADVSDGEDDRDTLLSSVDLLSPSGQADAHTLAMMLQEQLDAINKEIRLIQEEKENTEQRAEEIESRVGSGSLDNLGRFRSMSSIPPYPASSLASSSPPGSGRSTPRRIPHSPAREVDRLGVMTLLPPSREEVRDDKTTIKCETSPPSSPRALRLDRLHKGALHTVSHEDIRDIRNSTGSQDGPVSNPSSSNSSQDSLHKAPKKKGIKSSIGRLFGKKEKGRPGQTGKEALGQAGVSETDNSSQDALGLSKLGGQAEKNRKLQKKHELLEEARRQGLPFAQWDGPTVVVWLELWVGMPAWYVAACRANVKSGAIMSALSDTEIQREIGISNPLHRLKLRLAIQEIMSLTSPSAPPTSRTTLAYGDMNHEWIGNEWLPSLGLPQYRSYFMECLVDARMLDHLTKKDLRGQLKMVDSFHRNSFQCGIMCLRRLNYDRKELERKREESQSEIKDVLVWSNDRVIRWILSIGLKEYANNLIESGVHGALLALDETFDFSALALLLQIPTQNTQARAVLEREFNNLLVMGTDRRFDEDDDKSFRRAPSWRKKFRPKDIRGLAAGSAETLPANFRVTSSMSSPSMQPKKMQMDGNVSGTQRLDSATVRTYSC
UniProt Q10713: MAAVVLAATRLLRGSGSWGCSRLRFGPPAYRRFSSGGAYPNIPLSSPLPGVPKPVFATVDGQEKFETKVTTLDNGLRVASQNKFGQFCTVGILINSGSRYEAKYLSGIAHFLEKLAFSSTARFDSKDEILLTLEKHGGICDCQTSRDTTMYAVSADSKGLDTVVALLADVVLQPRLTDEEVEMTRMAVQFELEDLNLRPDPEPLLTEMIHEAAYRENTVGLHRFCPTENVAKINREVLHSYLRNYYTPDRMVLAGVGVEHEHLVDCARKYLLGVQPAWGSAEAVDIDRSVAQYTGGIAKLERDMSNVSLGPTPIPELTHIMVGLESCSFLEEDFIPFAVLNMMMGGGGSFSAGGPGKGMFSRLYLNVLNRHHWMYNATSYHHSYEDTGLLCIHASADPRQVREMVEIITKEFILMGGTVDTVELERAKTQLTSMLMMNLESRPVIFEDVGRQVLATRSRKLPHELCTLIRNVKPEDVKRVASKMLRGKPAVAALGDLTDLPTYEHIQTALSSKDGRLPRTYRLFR
UniProt Q6PFW1: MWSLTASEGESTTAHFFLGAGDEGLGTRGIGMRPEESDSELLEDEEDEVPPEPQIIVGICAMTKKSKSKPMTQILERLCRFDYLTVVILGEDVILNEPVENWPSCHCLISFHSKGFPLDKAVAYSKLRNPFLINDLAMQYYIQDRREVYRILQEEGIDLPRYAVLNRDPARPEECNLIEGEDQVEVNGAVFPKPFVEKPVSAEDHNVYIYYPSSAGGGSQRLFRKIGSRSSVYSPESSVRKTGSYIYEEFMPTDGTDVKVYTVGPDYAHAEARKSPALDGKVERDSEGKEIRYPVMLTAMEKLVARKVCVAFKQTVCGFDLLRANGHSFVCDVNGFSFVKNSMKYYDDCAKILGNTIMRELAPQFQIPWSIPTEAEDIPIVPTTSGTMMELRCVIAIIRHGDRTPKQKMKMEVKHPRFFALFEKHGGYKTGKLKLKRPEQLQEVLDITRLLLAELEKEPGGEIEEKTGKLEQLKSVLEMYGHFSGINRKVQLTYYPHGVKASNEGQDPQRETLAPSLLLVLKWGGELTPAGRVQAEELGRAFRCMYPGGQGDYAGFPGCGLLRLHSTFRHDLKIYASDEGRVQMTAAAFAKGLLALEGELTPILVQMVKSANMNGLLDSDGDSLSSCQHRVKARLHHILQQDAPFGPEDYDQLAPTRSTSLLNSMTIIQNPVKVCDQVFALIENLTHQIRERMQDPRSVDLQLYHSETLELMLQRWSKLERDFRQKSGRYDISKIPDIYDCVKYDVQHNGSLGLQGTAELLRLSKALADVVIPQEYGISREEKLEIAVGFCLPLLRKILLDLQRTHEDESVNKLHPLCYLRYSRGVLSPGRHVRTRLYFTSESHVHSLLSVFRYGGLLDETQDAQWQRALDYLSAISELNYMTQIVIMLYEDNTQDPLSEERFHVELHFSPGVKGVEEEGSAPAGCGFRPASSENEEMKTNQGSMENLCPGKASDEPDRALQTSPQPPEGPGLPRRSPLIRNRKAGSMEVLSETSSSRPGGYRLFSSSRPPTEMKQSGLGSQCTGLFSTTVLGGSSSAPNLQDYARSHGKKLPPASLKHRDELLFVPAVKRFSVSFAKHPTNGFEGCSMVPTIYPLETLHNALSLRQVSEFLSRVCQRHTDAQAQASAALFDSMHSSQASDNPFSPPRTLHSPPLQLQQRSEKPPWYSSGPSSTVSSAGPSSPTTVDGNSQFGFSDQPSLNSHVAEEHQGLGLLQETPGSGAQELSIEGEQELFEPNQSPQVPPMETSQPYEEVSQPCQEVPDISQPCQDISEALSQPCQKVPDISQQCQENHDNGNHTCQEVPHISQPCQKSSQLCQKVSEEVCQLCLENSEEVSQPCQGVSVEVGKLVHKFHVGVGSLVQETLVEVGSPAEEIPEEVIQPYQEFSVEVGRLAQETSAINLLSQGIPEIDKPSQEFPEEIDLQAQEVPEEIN
UniProt O15305: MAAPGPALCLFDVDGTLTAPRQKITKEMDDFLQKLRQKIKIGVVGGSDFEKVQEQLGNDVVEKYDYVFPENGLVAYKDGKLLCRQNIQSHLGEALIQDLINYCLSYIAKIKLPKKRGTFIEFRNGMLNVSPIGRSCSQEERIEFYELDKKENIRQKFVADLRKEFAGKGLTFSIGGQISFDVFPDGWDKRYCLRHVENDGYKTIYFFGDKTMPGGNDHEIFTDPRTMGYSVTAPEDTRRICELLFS
UniProt Q9Y2Y1: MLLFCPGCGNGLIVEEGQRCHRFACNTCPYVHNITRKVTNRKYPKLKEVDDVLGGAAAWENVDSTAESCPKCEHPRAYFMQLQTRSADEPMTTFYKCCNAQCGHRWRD
UniProt Q9NP80: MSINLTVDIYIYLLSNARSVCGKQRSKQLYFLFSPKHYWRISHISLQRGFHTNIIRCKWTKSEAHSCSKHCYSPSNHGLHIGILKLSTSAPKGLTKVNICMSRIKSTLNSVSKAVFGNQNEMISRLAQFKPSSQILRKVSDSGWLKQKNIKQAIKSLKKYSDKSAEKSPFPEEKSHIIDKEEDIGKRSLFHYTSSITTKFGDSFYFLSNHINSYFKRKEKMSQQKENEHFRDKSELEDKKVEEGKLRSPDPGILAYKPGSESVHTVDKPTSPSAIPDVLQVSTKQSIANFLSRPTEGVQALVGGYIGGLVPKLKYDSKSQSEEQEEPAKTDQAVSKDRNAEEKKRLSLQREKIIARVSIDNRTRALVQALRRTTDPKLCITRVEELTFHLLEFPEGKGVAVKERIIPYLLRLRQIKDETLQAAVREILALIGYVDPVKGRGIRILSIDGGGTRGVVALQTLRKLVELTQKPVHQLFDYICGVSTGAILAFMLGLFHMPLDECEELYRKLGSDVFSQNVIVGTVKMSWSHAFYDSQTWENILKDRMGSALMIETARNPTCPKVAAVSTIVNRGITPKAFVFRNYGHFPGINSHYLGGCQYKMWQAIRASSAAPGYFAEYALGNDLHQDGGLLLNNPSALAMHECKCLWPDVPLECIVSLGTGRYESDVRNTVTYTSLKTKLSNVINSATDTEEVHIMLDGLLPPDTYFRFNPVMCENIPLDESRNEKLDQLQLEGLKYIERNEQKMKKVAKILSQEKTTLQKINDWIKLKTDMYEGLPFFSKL

Compound: CCCS(=O)(=O)Nc1ccc(F)c(C(=O)c2c[nH]c3ncc(Cl)cc23)c1F
Assay: log2 fold change, soluble protein after heating vs DMSO (PISA); higher = thermal stabilisation; K562 cells, 10 uM, 30 min; active = over 0.2 and 3.5 SD of the protein, either way, in both replicates (recomputed)
In short: (§1)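 K562 cells at 2×10^6 cells/mL were treated with 10 μM compound for 30 min. Aliquots were heated for 3 min across 48°C-58°C, pooled, and extracted in PBS with 0.5% NP-40 at 4°C; soluble protein was the supernatant after 21,000xg for 90 min. Soluble protein was quantified by TMTpro 16plex LC-MS/MS with channel sums equalised, and reported as log2 fold change in thermal stability against DMSO controls, with values from duplicates.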

log2 fold change, inactive:
POLR2M (UniProt P0CAP2) -0.062
POLDIP3 (UniProt Q9BY77) -0.051
PPIH (UniProt O43447) 0.044
PPCS (UniProt Q9HAB8) 0.011
PPM1A isoform 3 (UniProt P35813) -0.021
POLR3B (UniProt Q9NW08) 0.172
POLE3 (UniProt Q9NRF9) 0
PPA1 (UniProt Q15181) 0.037
POLD3 (UniProt Q15054) 0.049
PPIL4 (UniProt Q8WUA2) 0
POGLUT2 (UniProt Q6UW63) -0.026
POLA1 (UniProt P09884) 0.053
POP1 (UniProt Q99575) 0.021
POLR1A (UniProt O95602) 0.062
PPFIA2 (UniProt O75334) 0.132
PPFIA1 (UniProt Q13136) 0.043
POLR3A (UniProt O14802) 0.11
PMPCA (UniProt Q10713) 0.037
POLR3G (UniProt O15318) -0.02
PLIN3 (UniProt O60664) 0.015
POMP (UniProt Q9Y244) -0.023
PPIP5K1 (UniProt Q6PFW1) 0.045
PLSCR1 (UniProt O15162) 0.088
PPCDC (UniProt Q96CD2) 0.001
PMM2 (UniProt O15305) -0.009
PLS3 (UniProt P13797) 0.032
POTEF (UniProt A5A3E0) 0.003
PLOD1 isoform 2 (UniProt Q02809) -0.064
POLR3K (UniProt Q9Y2Y1) -0.066
PNPLA8 (UniProt Q9NP80) -0.005
POLR2B (UniProt P30876) 0.041
PPIL1 (UniProt Q9Y3C6) 0.027

Compound: CCCc1cc(C)[nH]c(=O)c1CNC(=O)c1cc(-c2ccnc(N3CCN(C)CC3)c2)cc2c1cnn2C(C)C
Assay: as above
In short: as §1

log2 fold change, inactive:
POLR2M (UniProt P0CAP2) 0
POLDIP3 (UniProt Q9BY77) -0.032
PPIH (UniProt O43447) -0.032
PPCS (UniProt Q9HAB8) -0.028
PPM1A isoform 3 (UniProt P35813) 0.023
POLR3B (UniProt Q9NW08) 0.063
POLE3 (UniProt Q9NRF9) -0.022
PPA1 (UniProt Q15181) 0.082
POLD3 (UniProt Q15054) 0.065
PPIL4 (UniProt Q8WUA2) 0.04
POGLUT2 (UniProt Q6UW63) 0.019
POLA1 (UniProt P09884) 0.024
POP1 (UniProt Q99575) 0.018
POLR1A (UniProt O95602) 0.321
PPFIA2 (UniProt O75334) -0.011
PPFIA1 (UniProt Q13136) 0.085
POLR3A (UniProt O14802) 0.082
PMPCA (UniProt Q10713) -0.006
POLR3G (UniProt O15318) -0.015
PLIN3 (UniProt O60664) -0.042
POMP (UniProt Q9Y244) 0.016
PPIP5K1 (UniProt Q6PFW1) -0.045
PLSCR1 (UniProt O15162) -0.101
PPCDC (UniProt Q96CD2) -0.144
PMM2 (UniProt O15305) -0.055
PLS3 (UniProt P13797) -0.077
POTEF (UniProt A5A3E0) -0.025
PLOD1 isoform 2 (UniProt Q02809) 0.047
POLR3K (UniProt Q9Y2Y1) -0.038
PNPLA8 (UniProt Q9NP80) 0.084
POLR2B (UniProt P30876) 0.005
PPIL1 (UniProt Q9Y3C6) -0.016
